# PubChem BioAssay AID1259405, NCATS | 2018
# Purpose: 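Silenced genes that increase secreted GFP made by CHO cells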 (primary screen)
# Cells: Chinese hamster CHO-K1 ovary cells with stable secreted eGFP expression
# Reagents: single siRNA against mouse genes, 0.8 pmol siRNA per well (2 µl of 400 nM stock)
# Duration: 3 days
# Measurement: 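Percent of the per-plate non-targeting control median for intracellular GFP per well by laser scanning cytometry and for cell viability by ATP luminescence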
# Reading the numbers: GFP, % of control: higher = more GFP per well, higher productivity; viability (ATP), % of control: higher = more viable cells (more ATP)
# Hit rule: 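Called active when intracellular GFP, relative to negative control, is at or above 120%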
# The deposit covers about 50,000 reagents; shown is a part drawn at random. In the full data, about 4,000 (8%) were called active. 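Mouse siRNA library applied to hamster cells; one well for each siRNA.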 The numbers tell different reagents against one gene apart.
gene,siRNA no.,"GFP, % of control","viability (ATP), % of control",Call
Mmp3 (GeneID 17392),1,99.1,73.9,inactive
Mmp3 (GeneID 17392),2,69,65.5,inactive
Or9k2 (GeneID 258672),1,56.5,47,inactive
Or9k2 (GeneID 258672),2,51.9,51.2,inactive
Or9k2 (GeneID 258672),3,85.7,44.5,inactive
Fbl (GeneID 14113),1,116,74.3,inactive
Fbl (GeneID 14113),2,96.9,78.8,inactive
Fbl (GeneID 14113),3,127,95.5,active
Oaz2 (GeneID 18247),1,91,63.2,inactive
Oaz2 (GeneID 18247),2,92.6,77.9,inactive
Noc4l (GeneID 100608),1,104,124,inactive
Noc4l (GeneID 100608),2,51.1,62.5,inactive
Noc4l (GeneID 100608),3,59.1,89.5,inactive
Atxn7l2 (GeneID 72522),1,81.8,69.2,inactive
Atxn7l2 (GeneID 72522),2,45.5,81.5,inactive
Atxn7l2 (GeneID 72522),3,59.2,70.9,inactive
Or6b6 (GeneID 259037),1,165,79.2,active
Or6b6 (GeneID 259037),2,80.3,89.5,inactive
Or6b6 (GeneID 259037),3,58.9,72.5,inactive
Asic5 (GeneID 58170),1,106,102,inactive
Asic5 (GeneID 58170),2,50.2,30.8,inactive
Asic5 (GeneID 58170),3,102,96.4,inactive
Ccnd3 (GeneID 12445),1,62.2,65.4,inactive
Ccnd3 (GeneID 12445),2,100,102,inactive
Mettl25 (GeneID 216292),1,50.3,75,inactive
Mettl25 (GeneID 216292),2,73.6,102,inactive
Mettl25 (GeneID 216292),3,101,114,inactive
Nectin4 (GeneID 71740),1,84,94.1,inactive
Nectin4 (GeneID 71740),2,78.8,66.9,inactive
Pitpnb (GeneID 56305),1,70.6,92.3,inactive
Pitpnb (GeneID 56305),2,163,90.2,active
Skic2 (GeneID 108077),1,52.2,50.6,inactive
Skic2 (GeneID 108077),2,62.3,31.5,inactive
Skic2 (GeneID 108077),3,67,45.6,inactive
Phax (GeneID 56698),1,42,38.4,inactive
Phax (GeneID 56698),2,98.4,83.8,inactive
Phax (GeneID 56698),3,128,91.4,active
Nthl1 (GeneID 18207),1,105,110,inactive
Nthl1 (GeneID 18207),2,123,103,active
Nthl1 (GeneID 18207),3,50.1,83.1,inactive
Cdc42se1 (GeneID 57912),1,49.5,80.3,inactive
Cdc42se1 (GeneID 57912),2,121,53.5,active
Cdc42se1 (GeneID 57912),3,129,111,active
Srsf2 (GeneID 20382),1,145,95.2,active
Srsf2 (GeneID 20382),2,122,84.4,active
Unc45a (GeneID 101869),1,81.5,67.2,inactive
Unc45a (GeneID 101869),2,82.4,56.1,inactive
Unc45a (GeneID 101869),3,66.7,74.7,inactive
Or51aa5 (GeneID 258722),1,68,37.7,inactive
Or51aa5 (GeneID 258722),2,70.6,51.3,inactive
Or51aa5 (GeneID 258722),3,30.2,54.4,inactive
Ercc6 (GeneID 319955),1,101,96.8,inactive
Ercc6 (GeneID 319955),2,57.4,50.9,inactive
Ercc6 (GeneID 319955),3,54.9,76.4,inactive
Riok1 (GeneID 71340),1,79.5,69.8,inactive
Vipas39 (GeneID 104799),1,94.3,47.7,inactive
Vipas39 (GeneID 104799),2,114,102,inactive
Vipas39 (GeneID 104799),3,96.3,138,inactive
Uhmk1 (GeneID 16589),1,37.2,43.2,inactive
Uhmk1 (GeneID 16589),2,91.2,75.8,inactive
Uhmk1 (GeneID 16589),3,122,57.9,active
Larp7 (GeneID 28036),1,88.6,104,inactive
Larp7 (GeneID 28036),2,71.9,80.3,inactive
Larp7 (GeneID 28036),3,154,98.1,active
Larp7 (GeneID 28036),4,103,96.9,inactive
Larp7 (GeneID 28036),5,80,62.1,inactive
Larp7 (GeneID 28036),6,81.3,64,inactive
Pdxk (GeneID 216134),1,94.6,64.3,inactive
Adam17 (GeneID 11491),1,71.7,70.9,inactive
Adam17 (GeneID 11491),2,68.9,76.2,inactive
Adam17 (GeneID 11491),3,102,84.8,inactive
Rpl30 (GeneID 19946),1,67.8,51.4,inactive
Rpl30 (GeneID 19946),2,58.5,32.4,inactive
Rpl30 (GeneID 19946),3,71.2,65,inactive
Gpr137b (GeneID 83924),1,89.8,58.6,inactive
Gpr137b (GeneID 83924),2,104,89.2,inactive
Gpr137b (GeneID 83924),3,92.7,54.2,inactive
Rpl26 (GeneID 19941),1,47.4,66.5,inactive
Rpl26 (GeneID 19941),2,24.1,29.5,inactive
Rpl26 (GeneID 19941),3,32.2,37.1,inactive
Senp1 (GeneID 223870),1,73.4,81.4,inactive
Senp1 (GeneID 223870),2,102,74.4,inactive
Senp1 (GeneID 223870),3,62.5,51.1,inactive
Lnpk (GeneID 69605),1,69.6,74.8,inactive
Lnpk (GeneID 69605),2,97.8,72,inactive
Lnpk (GeneID 69605),3,63.7,79.3,inactive
